# Assay results reported in PMC4130184.
# These are yes or no findings as the source states them, for the method shown. For some assays here: In cells and extracts the contact can be indirect. Some results given as binding are weak or reduced against the parent protein; the word gives no strength. Tags and fused reporters may be left off the sequences shown.
# T1: recombinant PRIN2 (pET_His1a, E. coli) (Arabidopsis thaliana) (UniProt Q9XIK0)
# T1 sequence: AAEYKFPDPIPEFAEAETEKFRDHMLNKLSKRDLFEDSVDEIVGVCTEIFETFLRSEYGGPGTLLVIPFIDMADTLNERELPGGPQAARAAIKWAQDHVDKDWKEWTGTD
# T2: full length PRIN2-cMyc fusion protein expressed in Arabidopsis protoplasts (Arabidopsis thaliana) (UniProt Q9XIK0)
# T2 sequence: T1 sequence
# B1: recombinant CSP41b (pET_His1a, E. coli) (protein, UniProt Q9SA52 51-378)
# chain: SSEKKILIMGGTRFIGLFLSRILVKEGHQVTLFTRGKSPIAKQLPGESDQDFADFSSKILHLKGDRKDYDFVKSSLSAEGFDVVYDINGREAEEVEPILEALPKLEQYIYCSSAGVYLKSDILPHCEEDAVDPKSRHKGKLETESLLQSKGVNWTSIRPVYIYGPLNYNPVEEWFFHRLKAGRPIPVPNSGIQISQLGHVKDLATAFLNVLGNEKASREIFNISGEKYVTFDGLAKACAKAGGFPEPEIVHYNPKEFDFGKKKAFPFRDQHFFASVEKAKHVLGWKPEFDLVEGLTDSYNLDFGRGTFRKEADFTTDDMILSKKLVLQ
# B2: recombinant PRIN2 (pET_His1a, E. coli) (protein, UniProt Q9XIK0 70-179)
# chain: T1 sequence
# B3: full length CSP41b-HA fusion protein expressed in Arabidopsis protoplasts (protein, UniProt Q9SA52 51-378)
# chain: B1 chain
# Columns and labels:
# [1] = target: recombinant CSP41b (pET_His1a, E. coli) (Arabidopsis thaliana) (UniProt Q9SA52); experiment: native gel or EMSA; 2D Native PAGE/SDS PAGE: recombinant PRIN2, CSP41b and a 1:1 mixture incubated in binding buffer, run on 4–12% Native Bis-Tris Gel, strips loaded on 12% SDS PAGE; detection with anti-His peroxidase; both purified
# [2] = target: T1, recombinant PRIN2 (pET_His1a, E. coli) (Arabidopsis thaliana); experiment: as above
# [3] = target: T1, recombinant PRIN2 (pET_His1a, E. coli) (Arabidopsis thaliana); experiment: native gel or EMSA; EMSA with biotin-labelled psaA promoter probe (-196 to +1), also psbA-198 bp probe; 3 μg of each purified protein, DNA/protein molar ratio 1:100; room temperature 30 min; 6% native TBE-PAGE; heteromeric complex seen on DNA; both purified
# [4] = target: T2, full length PRIN2-cMyc fusion protein expressed in Arabidopsis protoplasts (Arabidopsis thaliana); experiment: co-IP; PRIN2-cMyc and CSP41b-HA expressed in Arabidopsis protoplasts; Co-IP with anti-cMyc antibody on protein G magnetic beads; blot with anti-HA peroxidase
Binder,binding [1],binding [2],binding [3],binding [4]
B1,binds,binds,binds,
B2,,binds,,
B3,,,,binds
